# Measurements as given in patent US10093642B2, “Multitarget hedgehog pathway inhibitors and uses thereof” (UNIVERSITA' DEGLI STUDI DI SIENA, priority 2013, dated 2018).
# Some of these results come from one statement about several compounds together. At least one compound was matched to its structure with a doubt left.
# System: Hh pathway (Gli-RE reporter, activated by SMO agonist SAG)
# Assay: Gli-luciferase reporter assay in SAG-treated NIH 3T3 Shh-light II cells
# Type: cell-based
# Conditions: at 30 μM; moderately active class
# Experimental: FIG. 4. Effect of active natural compounds identified by the pharmacophore screening in a luciferase assay, where the gene reporter was Gli1 and the pathway was activated by the SAG molecule, a potent SMO agonist. Natural compounds were tested at three different concentrations (1, 10 and 20 μM) and their activity was compared to that of cyclopamine, the natural compound reference inhibitor of the Hedgehog pathway, which was tested at the same doses (1, 10 and 20 μM). On both graphs the activity of cyclopamine is reported as reference standard. (A) cyclopamine, 2,4,5,3′,4′-penta-Ome chalcone and Auriculasin; (B) cyclopamine, Martinoside, Jaceidin, 2,4,5,3′,4′-penta-Ome chalcone, 3,4-di-MDO-2′,4′,5′-tri-Ome dihydrochalcone.
# FIG. 6. Dose-response curve of Glabrescione B in SAG (Smoothened Agonist, 200 nM) treated NIH 3T3 Shh-light II (Shh-LII) cells. Treatment time was 48 h and normalization was against Renilla luciferase. Shown is the fold increase of Hh reporter activity compared with cells not treated with SAG.
# FIG. 19. Effect of derivatives NT8, NT9, NT10, NT11, NT12, NT13, NT14 and NT15 on the Hedgehog pathway, measured at 5 μM dose in a luciferase assay where the gene reporter was Gli1 and the pathway was activated by the SAG molecule, a potent SMO agonist. […]
# To investigate the inhibitory properties of Glabrescione B on Hh signaling, the inventors examined its effects in NIH 3T3 Shh-light II (Shh-LII) cells stably incorporating an Hh-responsive (Gli-RE) reporter, in which induction of the pathway occurs following treatment with the SMO agonist SAG. […] The IC50 in this assay was 0.8 μM.
# The ability of Glabrescione B to suppress Hh signaling was assessed in a cellular context of Hh pathway induction. To this end, the antagonist properties of Glabrescione B were determined in Shh Light II (ATCC, cat. # CRL-2795), a murine fibroblast NIH 3T3 cell line. These cells, stably incorporating the Gli-luc reporter and the pRL-TK Renilla reniformis (as described in Taipale, Chen et al. 2000) are a standard tool used to assay Hh pathway activity. […]
row,Structure (SMILES),inhibition of Hh pathway in luciferase assay
1,"COc1cc(OC)c(C(=O)CCc2ccc3c(c2)OCO3)cc1OC [3,4-di-MDO-2′,4′,5′-tri-OMe dihydrochalcone]",up to 30%
2,COc1cc(-c2oc3cc(O)c(OC)c(O)c3c(=O)c2OC)ccc1O [Jaceidin],up to 30%
3,COc1ccc(CCO[C@@H]2O[C@H](CO)[C@@H](OC(=O)/C=C/c3ccc(O)c(OC)c3)[C@H](O[C@@H]3O[C@@H](C)[C@H](O)[C@@H](O)[C@H]3O)[C@H]2O)cc1O [Martinoside],up to 30%
